Laboratory results published in the supplement of paper PMC10849652.
This is one part of the list.

By UniProt entry, the sequences of proteins in these tests, tags left out. Where a name states a change or a piece, a line headed by the entry shows the natural chain unless it says otherwise.
UniProt Q9UMY1: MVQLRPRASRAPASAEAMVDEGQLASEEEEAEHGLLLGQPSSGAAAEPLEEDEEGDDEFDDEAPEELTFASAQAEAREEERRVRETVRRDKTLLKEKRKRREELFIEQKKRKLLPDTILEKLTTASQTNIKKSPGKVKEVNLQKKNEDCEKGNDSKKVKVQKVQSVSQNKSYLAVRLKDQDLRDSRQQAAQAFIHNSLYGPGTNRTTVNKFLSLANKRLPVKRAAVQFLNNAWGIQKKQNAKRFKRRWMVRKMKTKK
UniProt Q8TAT6: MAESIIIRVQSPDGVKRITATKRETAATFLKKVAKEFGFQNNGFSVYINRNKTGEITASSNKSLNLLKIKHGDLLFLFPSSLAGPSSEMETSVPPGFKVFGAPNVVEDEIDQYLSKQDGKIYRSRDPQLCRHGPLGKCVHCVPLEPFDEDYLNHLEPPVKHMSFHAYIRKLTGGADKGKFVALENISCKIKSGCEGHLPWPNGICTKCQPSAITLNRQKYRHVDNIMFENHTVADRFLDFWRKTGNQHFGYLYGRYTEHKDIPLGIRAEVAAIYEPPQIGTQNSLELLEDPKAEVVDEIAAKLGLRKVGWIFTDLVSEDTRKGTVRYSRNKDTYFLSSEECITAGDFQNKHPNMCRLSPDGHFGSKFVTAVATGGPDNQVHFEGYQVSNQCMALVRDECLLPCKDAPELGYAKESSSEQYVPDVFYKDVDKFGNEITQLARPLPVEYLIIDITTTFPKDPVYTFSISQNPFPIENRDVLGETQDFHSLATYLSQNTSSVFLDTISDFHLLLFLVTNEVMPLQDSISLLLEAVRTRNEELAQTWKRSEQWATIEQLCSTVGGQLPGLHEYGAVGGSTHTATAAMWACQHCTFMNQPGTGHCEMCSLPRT
UniProt Q9NV35: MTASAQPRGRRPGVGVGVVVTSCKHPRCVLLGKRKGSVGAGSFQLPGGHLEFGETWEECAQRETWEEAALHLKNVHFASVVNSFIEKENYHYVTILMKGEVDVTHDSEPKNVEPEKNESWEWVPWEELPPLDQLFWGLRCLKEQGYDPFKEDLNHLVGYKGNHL
UniProt P15559, whole entry, looked up: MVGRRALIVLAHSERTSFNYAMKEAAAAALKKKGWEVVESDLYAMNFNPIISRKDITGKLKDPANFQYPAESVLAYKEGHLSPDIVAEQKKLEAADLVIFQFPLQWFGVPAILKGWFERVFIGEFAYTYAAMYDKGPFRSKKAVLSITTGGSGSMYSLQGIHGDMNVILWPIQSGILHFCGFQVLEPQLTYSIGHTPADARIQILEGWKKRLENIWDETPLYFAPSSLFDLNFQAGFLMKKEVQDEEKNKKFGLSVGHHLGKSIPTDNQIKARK
UniProt P80303: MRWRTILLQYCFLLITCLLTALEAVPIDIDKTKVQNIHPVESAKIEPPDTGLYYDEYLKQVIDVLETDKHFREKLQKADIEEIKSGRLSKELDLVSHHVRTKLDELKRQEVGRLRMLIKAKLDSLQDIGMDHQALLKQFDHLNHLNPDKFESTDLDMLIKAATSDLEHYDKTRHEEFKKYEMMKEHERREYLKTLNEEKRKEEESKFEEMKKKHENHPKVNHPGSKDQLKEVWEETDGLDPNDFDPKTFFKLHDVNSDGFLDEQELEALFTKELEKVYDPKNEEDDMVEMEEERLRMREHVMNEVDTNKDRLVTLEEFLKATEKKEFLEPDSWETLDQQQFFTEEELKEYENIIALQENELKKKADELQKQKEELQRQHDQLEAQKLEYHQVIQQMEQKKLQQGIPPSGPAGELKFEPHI
UniProt P49790, whole entry, looked up: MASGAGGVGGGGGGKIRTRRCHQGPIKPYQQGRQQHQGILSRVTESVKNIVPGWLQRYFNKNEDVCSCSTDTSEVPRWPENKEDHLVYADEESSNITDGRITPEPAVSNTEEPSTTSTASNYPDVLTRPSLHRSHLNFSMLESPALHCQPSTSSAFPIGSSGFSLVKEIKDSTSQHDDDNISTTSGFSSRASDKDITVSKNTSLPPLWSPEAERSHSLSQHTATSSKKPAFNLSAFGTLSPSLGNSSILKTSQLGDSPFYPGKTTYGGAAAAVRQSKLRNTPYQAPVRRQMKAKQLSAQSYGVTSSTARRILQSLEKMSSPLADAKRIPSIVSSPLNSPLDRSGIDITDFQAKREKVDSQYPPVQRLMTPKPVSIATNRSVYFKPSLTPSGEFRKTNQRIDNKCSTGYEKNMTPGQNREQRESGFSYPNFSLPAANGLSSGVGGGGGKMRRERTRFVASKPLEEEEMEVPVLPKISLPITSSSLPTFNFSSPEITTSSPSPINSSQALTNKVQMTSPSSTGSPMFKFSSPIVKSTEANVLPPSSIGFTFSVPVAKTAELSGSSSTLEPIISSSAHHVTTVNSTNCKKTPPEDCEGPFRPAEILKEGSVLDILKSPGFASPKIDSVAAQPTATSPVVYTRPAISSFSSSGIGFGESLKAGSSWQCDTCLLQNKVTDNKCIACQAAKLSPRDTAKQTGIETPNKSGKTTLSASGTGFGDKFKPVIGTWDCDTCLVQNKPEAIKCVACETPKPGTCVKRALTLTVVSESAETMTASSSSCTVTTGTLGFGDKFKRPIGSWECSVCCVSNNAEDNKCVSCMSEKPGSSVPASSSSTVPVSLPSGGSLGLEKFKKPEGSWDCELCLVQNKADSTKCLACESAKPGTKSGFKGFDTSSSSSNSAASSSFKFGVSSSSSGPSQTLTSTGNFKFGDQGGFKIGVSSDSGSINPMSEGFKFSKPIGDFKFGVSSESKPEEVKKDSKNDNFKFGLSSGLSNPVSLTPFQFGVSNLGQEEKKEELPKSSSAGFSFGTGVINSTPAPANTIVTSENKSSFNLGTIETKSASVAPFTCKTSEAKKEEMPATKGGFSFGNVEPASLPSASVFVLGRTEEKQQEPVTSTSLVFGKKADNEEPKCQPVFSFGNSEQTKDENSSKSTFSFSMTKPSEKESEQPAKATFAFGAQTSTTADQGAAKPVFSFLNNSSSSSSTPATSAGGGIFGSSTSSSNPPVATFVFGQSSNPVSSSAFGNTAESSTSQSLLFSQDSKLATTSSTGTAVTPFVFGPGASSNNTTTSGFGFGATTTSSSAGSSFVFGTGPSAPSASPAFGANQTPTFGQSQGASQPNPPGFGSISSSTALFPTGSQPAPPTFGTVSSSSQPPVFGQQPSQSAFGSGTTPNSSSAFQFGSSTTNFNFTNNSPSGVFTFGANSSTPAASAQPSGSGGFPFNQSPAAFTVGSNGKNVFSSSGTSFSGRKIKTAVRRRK
UniProt Q96DE0: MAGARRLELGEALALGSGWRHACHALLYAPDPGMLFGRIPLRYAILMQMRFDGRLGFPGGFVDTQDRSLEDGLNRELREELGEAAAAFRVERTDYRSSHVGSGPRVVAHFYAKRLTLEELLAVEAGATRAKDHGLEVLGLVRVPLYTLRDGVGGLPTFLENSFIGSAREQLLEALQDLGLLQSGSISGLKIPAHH
UniProt Q8NC60: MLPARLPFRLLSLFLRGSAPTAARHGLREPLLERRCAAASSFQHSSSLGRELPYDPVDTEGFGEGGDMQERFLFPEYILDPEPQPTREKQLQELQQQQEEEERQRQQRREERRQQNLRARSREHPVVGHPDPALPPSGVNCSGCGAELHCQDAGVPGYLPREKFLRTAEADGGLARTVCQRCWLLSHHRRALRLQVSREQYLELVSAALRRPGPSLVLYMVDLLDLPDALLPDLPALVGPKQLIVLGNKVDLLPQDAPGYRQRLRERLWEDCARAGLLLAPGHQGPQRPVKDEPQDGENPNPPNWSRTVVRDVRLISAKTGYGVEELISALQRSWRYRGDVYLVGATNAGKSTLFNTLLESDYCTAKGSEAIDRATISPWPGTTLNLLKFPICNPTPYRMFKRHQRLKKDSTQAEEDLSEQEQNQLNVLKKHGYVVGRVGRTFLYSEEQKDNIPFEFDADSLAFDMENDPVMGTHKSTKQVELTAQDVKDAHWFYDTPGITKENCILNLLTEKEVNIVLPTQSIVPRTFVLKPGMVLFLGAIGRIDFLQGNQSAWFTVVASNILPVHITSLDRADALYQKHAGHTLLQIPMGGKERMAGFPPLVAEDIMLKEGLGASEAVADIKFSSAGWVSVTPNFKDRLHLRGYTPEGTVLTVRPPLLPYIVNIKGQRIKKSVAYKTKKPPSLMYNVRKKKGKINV
UniProt P61916: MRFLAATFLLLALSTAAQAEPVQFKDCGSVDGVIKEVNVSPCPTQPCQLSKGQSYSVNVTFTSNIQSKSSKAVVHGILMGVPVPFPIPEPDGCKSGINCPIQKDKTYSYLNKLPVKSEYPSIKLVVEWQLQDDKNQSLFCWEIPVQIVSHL
UniProt P15531, whole entry, looked up: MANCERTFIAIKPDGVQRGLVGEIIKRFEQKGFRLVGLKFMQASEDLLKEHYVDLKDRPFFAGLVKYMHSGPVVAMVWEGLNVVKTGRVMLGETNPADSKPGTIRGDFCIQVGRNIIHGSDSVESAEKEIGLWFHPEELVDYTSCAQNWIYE
UniProt O95989: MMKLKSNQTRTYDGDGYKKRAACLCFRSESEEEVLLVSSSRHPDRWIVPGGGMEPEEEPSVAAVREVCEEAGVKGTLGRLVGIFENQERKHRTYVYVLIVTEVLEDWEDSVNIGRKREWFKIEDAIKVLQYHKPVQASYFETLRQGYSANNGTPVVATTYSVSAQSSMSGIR
UniProt P49757: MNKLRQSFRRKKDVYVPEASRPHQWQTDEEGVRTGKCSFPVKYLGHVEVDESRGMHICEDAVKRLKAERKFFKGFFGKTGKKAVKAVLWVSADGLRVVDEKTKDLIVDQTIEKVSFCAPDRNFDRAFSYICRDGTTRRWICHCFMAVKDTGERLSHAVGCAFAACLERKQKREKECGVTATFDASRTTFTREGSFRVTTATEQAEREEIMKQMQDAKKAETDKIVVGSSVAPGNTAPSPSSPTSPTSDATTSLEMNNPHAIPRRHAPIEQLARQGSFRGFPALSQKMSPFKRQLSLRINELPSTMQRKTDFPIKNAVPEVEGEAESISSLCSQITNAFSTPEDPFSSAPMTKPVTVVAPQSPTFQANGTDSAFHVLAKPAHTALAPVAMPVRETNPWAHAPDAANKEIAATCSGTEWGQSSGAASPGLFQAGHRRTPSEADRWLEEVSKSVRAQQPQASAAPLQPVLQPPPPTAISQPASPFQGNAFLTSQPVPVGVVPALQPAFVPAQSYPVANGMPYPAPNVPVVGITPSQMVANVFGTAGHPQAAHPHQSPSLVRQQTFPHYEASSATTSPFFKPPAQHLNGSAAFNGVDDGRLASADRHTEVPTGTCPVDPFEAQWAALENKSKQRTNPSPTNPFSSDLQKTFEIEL
UniProt Q9Y314: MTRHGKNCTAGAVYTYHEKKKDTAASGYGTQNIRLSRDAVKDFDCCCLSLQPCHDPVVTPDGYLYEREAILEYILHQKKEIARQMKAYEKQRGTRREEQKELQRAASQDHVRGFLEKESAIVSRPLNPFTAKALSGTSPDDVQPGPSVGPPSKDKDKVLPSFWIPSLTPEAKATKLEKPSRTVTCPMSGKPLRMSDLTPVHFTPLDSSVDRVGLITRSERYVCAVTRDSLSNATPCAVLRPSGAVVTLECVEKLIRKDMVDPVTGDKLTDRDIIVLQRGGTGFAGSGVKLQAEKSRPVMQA
UniProt Q9BRQ3: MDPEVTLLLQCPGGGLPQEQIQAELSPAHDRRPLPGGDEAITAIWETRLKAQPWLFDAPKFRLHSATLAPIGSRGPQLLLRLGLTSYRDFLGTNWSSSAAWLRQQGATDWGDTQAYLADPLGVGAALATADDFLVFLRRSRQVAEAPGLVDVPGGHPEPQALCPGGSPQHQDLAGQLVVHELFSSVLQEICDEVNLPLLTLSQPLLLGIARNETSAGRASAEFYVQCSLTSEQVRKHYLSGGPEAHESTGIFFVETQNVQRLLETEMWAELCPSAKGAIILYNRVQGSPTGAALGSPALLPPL
UniProt A8MXV4: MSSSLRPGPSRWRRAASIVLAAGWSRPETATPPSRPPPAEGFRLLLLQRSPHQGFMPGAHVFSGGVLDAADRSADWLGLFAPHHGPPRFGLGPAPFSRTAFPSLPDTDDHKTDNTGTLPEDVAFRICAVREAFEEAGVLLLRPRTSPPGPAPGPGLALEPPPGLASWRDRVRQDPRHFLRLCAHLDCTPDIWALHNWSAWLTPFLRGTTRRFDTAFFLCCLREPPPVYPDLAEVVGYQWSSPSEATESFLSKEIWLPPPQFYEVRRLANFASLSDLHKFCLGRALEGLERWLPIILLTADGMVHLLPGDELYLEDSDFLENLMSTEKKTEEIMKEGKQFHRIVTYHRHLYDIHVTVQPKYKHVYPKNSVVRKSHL
UniProt Q9Y5B8, whole entry, looked up: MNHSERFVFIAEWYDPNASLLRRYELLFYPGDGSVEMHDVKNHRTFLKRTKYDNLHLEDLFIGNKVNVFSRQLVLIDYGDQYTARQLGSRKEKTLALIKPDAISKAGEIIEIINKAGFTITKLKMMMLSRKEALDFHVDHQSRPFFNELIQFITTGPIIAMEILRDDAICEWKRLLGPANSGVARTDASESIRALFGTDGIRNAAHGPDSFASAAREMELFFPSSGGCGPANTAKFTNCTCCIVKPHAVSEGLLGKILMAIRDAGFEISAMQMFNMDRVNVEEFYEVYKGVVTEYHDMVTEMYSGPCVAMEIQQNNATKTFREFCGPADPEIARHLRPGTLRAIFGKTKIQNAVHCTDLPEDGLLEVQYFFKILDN

Compound: c1cn2cc(-c3ccc4cn[nH]c4c3)nc(Nc3ccc(N4CCOCC4)cc3)c2n1 [entospletinib]
Test: log2 fold change, soluble protein after heating vs DMSO (PISA); higher = thermal stabilisation; K562 lysate, 10 uM; active = over 0.2 and 3.5 SD of the protein, either way, in both replicates (recomputed)
Outline: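 To prepare the extract, K562 pellets were dounce-homogenised in PBS pH 7.4 with 1 mM MgCl2, giving crude material at 1 mg/mL protein. This was treated with 10 μM compound for 30 min, then heated in aliquots for 3 min over 48°C-58°C before pooling and addition of NP-40 to 0.5% at 4°C. Centrifugation at 21,000xg for 90 min left soluble protein in the supernatant, which TMTpro 16plex LC-MS/MS quantified with equalised channel sums. Results are log-two fold changes in thermal stability compared with solvent controls, from duplicates.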

log2 fold change, inactive:
NOL7 (UniProt Q9UMY1) 0.015
NPLOC4 isoform 2 (UniProt Q8TAT6) 0.031
NUDT15 (UniProt Q9NV35) -0.008
NMNAT1 (UniProt Q9HAN9) -0.021
NTMT1 (UniProt Q9BV86) 0.049
NQO1 (UniProt P15559) -0.027
NUCB2 (UniProt P80303) -0.008
NUP153 (UniProt P49790) -0.028
NUDT16 (UniProt Q96DE0) -0.053
NOP10 (UniProt Q9NPE3) -0.015
NOA1 (UniProt Q8NC60) -0.008
NPC2 (UniProt P61916) 0.161
NSMCE3 (UniProt Q96MG7) 0.049
NUMBL (UniProt Q9Y6R0) 0.102
NTHL1 (UniProt P78549) 0.14
NUF2 (UniProt Q9BZD4) 0.016
NOP9 (UniProt Q86U38) -0.091
NMU (UniProt P48645) -0.027
NRBP2 (UniProt Q9NSY0) 0.059
NME1 isoform 2 (UniProt P15531) 0.102
NOC4L (UniProt Q9BVI4) 0.029
NUDT3 (UniProt O95989) 0.007
NOP53 (UniProt Q9NZM5) -0.021
NUP133 (UniProt Q8WUM0) -0.033
NUMB (UniProt P49757) 0
NOSIP (UniProt Q9Y314) 0.013
NMRAL1 (UniProt Q9HBL8) 0.012
NT5C3A (UniProt Q9H0P0) 0.032
NUP107 (UniProt P57740) -0.028
NUDT22 (UniProt Q9BRQ3) 0.023
NUDT19 (UniProt A8MXV4) 0.04
NPTN (UniProt Q9Y639) 0.096
NME7 (UniProt Q9Y5B8) -0.001
NSMCE2 (UniProt Q96MF7) 0.041
NSMAF (UniProt Q92636) -0.006
NOL9 (UniProt Q5SY16) -0.033
NUDT5 (UniProt Q9UKK9) 0.012
NT5DC2 isoform 2 (UniProt Q9H857) -0.013
NOC2L (UniProt Q9Y3T9) 0.028

Reprinted from the entries so far for reference:
log2 fold change, inactive:
NTMT1 (UniProt Q9BV86) 0.049
NQO1 (UniProt P15559) -0.027
